Experimental data from article PMC4623681.
Results are given in words; binding and its absence hold for the method and conditions named. Binding can be weak; no strength is given.

What was measured:
ZmNF-YB2a (maize) [1] = target: T1, ZmNF-YB2a (maize) (UniProt P25209); assay: two-hybrid; library screen in yeast; bait against wheat cDNA libraries WGL, WENDL, WHSL, WGD and WRDL (cv. RAC875 tissues under drought and heat); first bait ZmNF-YB2a in pGBKT7, second bait TaNF-YC15 from Ala97
T1 sequence: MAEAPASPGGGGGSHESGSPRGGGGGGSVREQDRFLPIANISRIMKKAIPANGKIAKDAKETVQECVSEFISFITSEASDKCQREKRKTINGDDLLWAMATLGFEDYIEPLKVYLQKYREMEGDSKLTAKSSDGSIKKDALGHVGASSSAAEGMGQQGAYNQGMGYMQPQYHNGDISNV

ZmNF-YB2a (maize) [2] = target: T1, ZmNF-YB2a (maize); assay: two-hybrid; pairwise tests in yeast with re-cloned coding regions (untranslated regions removed); NF-YB coding regions in the bait vector (reciprocal direction); set of N-terminal and C-terminal truncations of TaNF-YB2

binding (ZmNF-YB2a (maize) [1]): binds | binding (ZmNF-YB2a (maize) [2]): binds
Substance: TaNF-YC15 (wheat (Triticum aestivum L. cv. RAC875))
